Reference: the supplement of paper PMC10338343
± gives the standard deviation. The list shows a part of the results. Many entries were measured with a wide error.

Each sequence was assayed on EfPiwi piRISC loaded with L1MC piRNA (26 nt) (assay: pre-steady-state target cleavage rate (min^-1); guide: L1MC piRNA 5'p-UAACUAAAUACUAUGCAAGCUGUAGG; MIWI and MILI are mouse PIWI proteins and EfPiwi is from a freshwater sponge; tags in brackets are library labels; higher = faster piRNA-guided slicing of the target). Details: auxiliary factor: 500 nM Ephydatia muelleri Gtsf1.
Outline: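 In HEPES–potassium acetate buffer at 33 °C, […] transcribed, DNA-blocked target RNA library was mixed with 1 nM active affinity-purified piRISC carrying one synthetic guide, with or without 500 nM GTSF1 partner protein, for 0–8 or 0–960 min. Uncleaved targets were sequenced and normalised to depth and to weakly complementary targets; three trials were pooled and k3 was capped at 0.0001 min^-1. The pre-steady-state cleavage rate followed from a burst-and-steady-state fit.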

Sequence | pre-steady-state target cleavage rate
UCCUGGAUGAGCUCUGCAUAGUAUUUAGUUA | 0.00721 ± 0.0028
UCCUGGAUCAGCUUGCAUACUAUUUAGAAA | 0.00139 ± 0.0041
UCCUGGAUGAGCUAGCAUAGUAUAUAGUUA | 0.00211 ± 0.0031
UCCUGGAACAGCUUGCAUUGUAUUUAGUUA | 0.00926 ± 0.0026
UCCUGGAUCAGCUAGCAUAGUUUUUAGUUA | 0.00174 ± 0.0036
UCCUGCUAUCAGCUUGCAUAGUAUUUAGUUA | 0.0613 ± 0.015
UCCUGGAACAGCGUUGCAUAGUAUUUAGUUA | 0.0162 ± 0.0046
UCCUGGAUGAGCUUGCAUAGUAUUUAGUCA | 0.00793 ± 0.0032
UCCUCCUUCACCUUGCAUAGUAUUUAGUUA | 0.0605 ± 0.021
UCCUGGAUGAGCUUGCAUAGUAUUUAGUA | 0.00405 ± 0.0032
UCCUCCUACAGCUUGCAUAGUAUUUAGAAA | 0.00581 ± 0.0024
UCCUGCUACAGCUUGCAAAGUUUUUAGUUA | 0.00207 ± 0.002
UCCUGGUACAGCUUGGAUAGUAUUUUGUUA | 0.0013 ± 0.0078
UCCUGCUACAGCUAGCAAAGUAUUUAGUUA | 0.0328 ± 0.0098
UCCUGGAUGUGCUUGCAAAGUAUAUAGUUA | 0.000556 ± 0.0089
UCCUGGAUGUCCUUGCAUAGUCUUUAGUUA | 0.00326 ± 0.0014
UCCUCCUACAGGAAGCAUAGUAUUUAGUAA | 0.00397 ± 0.0031

Sequence | pre-steady-state target cleavage rate
UCCUGGAUGUGCUUGCAUAGUAUUUAGUUC [g2:g20:cont:t1C] | 0.0175 ± 0.0048
UCCUCCUACAGCUUGCAUAGUAUUUUCAAA | 0.00383 ± 0.0027
UCCUCCUACAGCUUGCAAAGUAAUUAGUUA | 0.00531 ± 0.0022
UCCUGGUACAGGUUGCAAAGUAUUUAGUUA | 0.00511 ± 0.0028
UCCUGCUACAGCAUGCAAAGUAUUUAGUUA | 0.00845 ± 0.0025
UCCUGGUACAGCUUGCUAAGUAUUUAGUAA | 0.0016 ± 0.0052
UCCUGGAUGUCGUUGCAUAGUAUUUAGUUUA | 0.0007 ± 0.016
UCCUGGAUCAGCAUGCAUAGUAUUUACUUA | 0.00233 ± 0.0029
UCCUCCUACAGGUUGCAUUGUAUUUAGUUA | 0.0124 ± 0.0028
UCCUGGAUCGGCUUGCAUAGUAUUUAGUUA | 0.0523 ± 0.0092
UCCUGGAACAGCUAGCAUAGUAUUAAGUUA | 0.0146 ± 0.0061
UCCUCCUACAUGCUUGCAUAGUAUUUAGUUA | 0.00449 ± 0.0018
UCCUGGAACAGCUUGCAAAGUAUUUAGUUA | 0.0333 ± 0.0089
UCCUGGAUGUCCUUGCAUAUUAUUUAGUUA | 0.00283 ± 0.0025
UCCUGGUACAGCUUGCAUAGAAAUUAGUUA | 0.00112 ± 0.0035
UCCUGGAACUGGUUGCAUAGUAUUUAGUUA | 0.02 ± 0.0073
